Experimental data published in the supplement of paper PMC10470496.
Where a name gives a salt, the structure may show the parent alone. This is one part of the list. Single values are uncertain, as repeats are few or missing.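 The strains were three CDC resistance-bank clinical C. auris isolates from clades III, IV and I, cultured in RPMI-1640 at 35°C. Growth was background-corrected OD600 versus vehicle-only wells on the same plate. A hit needed >50% inhibition in two or more strains plus a plate-corrected B-score exceeding 0.1.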

Key:
Assay in all cases: growth relative to vehicle control (OD600 ratio) (fraction); higher = less inhibition
Conditions in all cases: 24 h
[1] = tested on: C. auris AR-384
[2] = tested on: C. auris AR-386
[3] = tested on: C. auris AR-387

| SMILES | growth ([1]; 1 µM) | growth ([1]; 10 µM) | growth ([2]; 1 µM) | growth ([2]; 10 µM) | growth ([3]; 1 µM) | growth ([3]; 10 µM) |
| --- | --- | --- | --- | --- | --- | --- |
| O=C1c2cccc3c2[C@H](CCC3)CN1[C@@H]1CN2CCC1CC2 [Palonosetron HCl] | 0.78 | 0.65 | 1.07 | 0.69 | 0.63 | 0.76 |
| Cc1cc(O)cc(C)c1Cl [Chloroxylenol] | 0.85 | 0.82 | 0.86 | 0.89 | 1.03 | 0.83 |
| C[N+]1(C)[C@@H]2CC[C@H]1C[C@@H](OC(=O)C(O)c1ccccc1)C2 (stereo not given in full) [Homatropine Methylbromide] | 1.26 | 0.87 | 0.81 | 0.84 | 1.02 | 0.88 |
| CC#CCn1c(N2CCC[C@@H](N)C2)nc2c1c(=O)n(Cc1nc(C)c3ccccc3n1)c(=O)n2C [Linagliptin] | 1.01 | 0.84 | 0.65 | 1.3 | 0.95 | 0.97 |
| NCCc1c[nH]cn1 [Histamine Phosphate] | 0.6 | 0.57 | 0.91 | 0.68 | 1.08 | 0.72 |
| O=c1ccc2ccc(OCCCCN3CCN(c4cccc5sccc45)CC3)cc2[nH]1 [Brexpiprazole] | 0.93 | 0.95 | 0.71 | 0.93 | 0.97 | 1.15 |
| CN1CCN(CCCN2c3ccccc3Sc3ccc(C(F)(F)F)cc32)CC1 [Trifluoperazine 2HCl] | 0.88 | 1.25 | 1.04 | 1.07 | 1 | 0.97 |
| COc1cc(OC)c(/C=C/S(=O)(=O)Cc2ccc(OC)c(NCC(=O)O)c2)c(OC)c1 | 1.15 | 1.07 | 1.29 | 1.49 | 0.95 | 1.11 |
| CCN(CC)CCOC(=O)c1ccc(N)cc1 [Procaine] | 0.84 | 0.97 | 1.04 | 0.76 | 1.17 | 0.89 |
| CCC(=O)OCC(=O)[C@@]1(OC(=O)CC)[C@@H](C)C[C@H]2[C@@H]3CCC4=CC(=O)C=C[C@]4(C)[C@@]3(Cl)[C@@H](O)C[C@@]21C [Beclomethasone dipropionate] | 1.03 | 0.69 | 0.96 | 0.86 | 0.75 | 0.51 |
| NS(=O)(=O)c1cc(C(=O)O)c(NCc2ccco2)cc1Cl [Furosemide] | 1.1 | 0.82 | 1.09 | 1.25 | 1.23 | 1.18 |
| CCC(=O)O[C@@H](O[P@](=O)(CCCCc1ccccc1)CC(=O)N1C[C@H](C2CCCCC2)C[C@H]1C(=O)O)C(C)C [Fosinopril Sodium] | 0.85 | 1.02 | 0.97 | 0.81 | 0.85 | 0.89 |
| C=C1CC[C@H](O)C/C1=C/C=C1\CCC[C@]2(C)[C@@H]([C@H](C)/C=C/[C@H](C)C(C)C)CC[C@@H]12 [Vitamin D2] | 0.89 | 0.9 | 0.56 | 0.71 | 0.64 | 0.76 |
| Cn1ncc(Cl)c1-c1cc(C(=O)N[C@H](CN)Cc2ccc(F)c(F)c2)oc1Cl | 0.8 | 0.76 | 1.09 | 0.91 | 0.64 | 0.9 |
| CC(C)C(=O)Nc1ccc([N+](=O)[O-])c(C(F)(F)F)c1 [Flutamide] | 1.2 | 1.03 | 1.09 | 1.17 | 1.17 | 1.08 |
| CNC(=O)c1cc(Oc2ccc(NC(=O)Nc3ccc(Cl)c(C(F)(F)F)c3)cc2)ccn1 [Sorafenib] | 1.31 | 1.21 | 1.01 | 1.13 | 1.17 | 1.21 |
| CN1CCc2nc(C(=O)N[C@@H]3C[C@@H](C(=O)N(C)C)CC[C@@H]3NC(=O)C(=O)Nc3ccc(Cl)cn3)sc2C1 [Edoxaban] | 0.87 | 0.69 | 0.84 | 0.66 | 0.74 | 0.72 |
| CCCCc1nc2cc(/C=C/C(=O)NO)ccc2n1CCN(CC)CC [Pracinostat (SB939)] | 1.09 | 0.89 | 0.63 | 1.29 | 0.84 | 1.23 |
| CC(C(=O)O)c1ccc(-c2ccccc2)c(F)c1 (stereo not given) [Flurbiprofen] | 0.94 | 0.67 | 0.99 | 1.15 | 0.9 | 1.07 |
| Cn1cc(C(=O)[C@@H]2CCc3[nH]cnc3C2)c2ccccc21 [Ramosetron Hydrochloride] | 0.97 | 0.6 | 0.91 | 0.68 | 0.77 | 0.59 |

2 neighbouring records already listed:

| SMILES | growth ([1]; 1 µM) | growth ([1]; 10 µM) | growth ([2]; 1 µM) | growth ([2]; 10 µM) | growth ([3]; 1 µM) | growth ([3]; 10 µM) |
| --- | --- | --- | --- | --- | --- | --- |
| CCC(=O)OCC(=O)[C@@]1(OC(=O)CC)[C@@H](C)C[C@H]2[C@@H]3CCC4=CC(=O)C=C[C@]4(C)[C@@]3(Cl)[C@@H](O)C[C@@]21C [Beclomethasone dipropionate] | 1.03 | 0.69 | 0.96 | 0.86 | 0.75 | 0.51 |
| NS(=O)(=O)c1cc(C(=O)O)c(NCc2ccco2)cc1Cl [Furosemide] | 1.1 | 0.82 | 1.09 | 1.25 | 1.23 | 1.18 |
